Results from paper PMC8384837.
Positions count from the first letter of the chain named. The list shows a part of the results. For some assays here: At the low end of the ranking, values are background and their order means little.

How the values were obtained:
Conditions in all cases: yeast three-hybrid, YBZ-1, SC-Leu-His + 0.5 mM 3-AT, 4 days
[1] = biological target: T1, PUM1 PUF domain R3-SCD C935S + R936C + Q939D (UniProt Q14671)
T1 sequence: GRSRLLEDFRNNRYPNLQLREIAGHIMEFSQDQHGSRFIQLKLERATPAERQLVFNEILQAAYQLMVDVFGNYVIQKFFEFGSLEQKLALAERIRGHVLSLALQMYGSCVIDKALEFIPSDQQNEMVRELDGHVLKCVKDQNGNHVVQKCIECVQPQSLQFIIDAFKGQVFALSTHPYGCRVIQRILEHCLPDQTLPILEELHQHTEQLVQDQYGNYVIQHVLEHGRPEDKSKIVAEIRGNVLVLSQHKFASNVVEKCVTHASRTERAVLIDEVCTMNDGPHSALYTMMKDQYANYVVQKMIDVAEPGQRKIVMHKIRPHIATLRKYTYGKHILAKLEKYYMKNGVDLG

[2] = biological target: T2, PUM1 PUF domain R3-SCP C935S + R936C + Q939P (UniProt Q14671)
T2 sequence: T1 sequence with D112P

[3] = biological target: T3, PUM1 PUF domain R3-SEE C935S + R936E + Q939E (UniProt Q14671)
T3 sequence: T1 sequence with C109E, D112E

[4] = biological target: T4, PUM1 PUF domain R3-SGE C935S + R936G + Q939E (UniProt Q14671)
T4 sequence: T1 sequence with C109G, D112E

[5] = biological target: T5, PUM1 PUF domain R3-SHG C935S + R936H + Q939G (UniProt Q14671)
T5 sequence: T1 sequence with C109H, D112G

[6] = biological target: T6, PUM1 PUF domain R3-SIR C935S + R936I + Q939R (UniProt Q14671)
T6 sequence: T1 sequence with C109I, D112R

[7] = biological target: T7, PUM1 PUF domain R3-SPS C935S + R936P + Q939S (UniProt Q14671)
T7 sequence: T1 sequence with C109P, D112S

[8] = biological target: T8, PUM1 PUF domain R3-SPT C935S + R936P + Q939T (UniProt Q14671)
T8 sequence: T1 sequence with C109P, D112T

[9] = biological target: T9, PUM1 PUF domain R3-SPW C935S + R936P + Q939W (UniProt Q14671)
T9 sequence: T1 sequence with C109P, D112W

[10] = biological target: T10, PUM1 PUF domain R3-SRA C935S + Q939A (UniProt Q14671)
T10 sequence: T1 sequence with C109R, D112A

[11] = biological target: T11, PUM1 PUF domain R3-SRG C935S + Q939G (UniProt Q14671)
T11 sequence: T1 sequence with C109R, D112G

[12] = biological target: T12, PUM1 PUF domain R3-SRH C935S + Q939H (UniProt Q14671)
T12 sequence: T1 sequence with C109R, D112H

[13] = biological target: T13, PUM1 PUF domain R3-SRK C935S + Q939K (UniProt Q14671)
T13 sequence: T1 sequence with C109R, D112K

[14] = biological target: T14, PUM1 PUF domain R3-SRL C935S + Q939L (UniProt Q14671)
T14 sequence: T1 sequence with C109R, D112L

[15] = biological target: T15, PUM1 PUF domain R3-SRP C935S + Q939P (UniProt Q14671)
T15 sequence: T1 sequence with C109R, D112P

[16] = biological target: T16, PUM1 PUF domain R3-SRS C935S + Q939S (Homo sapiens) (UniProt Q14671)
T16 sequence: T1 sequence with C109R, D112S

[17] = biological target: T17, PUM1 PUF domain R3-SRV C935S + Q939V (UniProt Q14671)
T17 sequence: T1 sequence with C109R, D112V

[18] = biological target: T18, PUM1 PUF domain R3-SSD C935S + R936S + Q939D (UniProt Q14671)
T18 sequence: T1 sequence with C109S

[19] = biological target: T19, PUM1 PUF domain R3-SSE C935S + R936S + Q939E (UniProt Q14671)
T19 sequence: T1 sequence with C109S, D112E

[20] = biological target: T20, PUM1 PUF domain R3-STD C935S + R936T + Q939D (UniProt Q14671)
T20 sequence: T1 sequence with C109T

[21] = biological target: T21, PUM1 PUF domain R3-SVE C935S + R936V + Q939E (UniProt Q14671)
T21 sequence: T1 sequence with C109V, D112E

[22] = biological target: T22, PUM1 PUF domain R3-SWL C935S + R936W + Q939L (UniProt Q14671)
T22 sequence: T1 sequence with C109W, D112L

[23] = biological target: T23, PUM1 PUF domain R3-TCE C935T + R936C + Q939E (UniProt Q14671)
T23 sequence: T1 sequence with S108T, D112E

[24] = biological target: T24, PUM1 PUF domain R3-THE R4-TFR C935T + R936H + Q939E + N971T + H972F + Q975R (UniProt Q14671)
T24 sequence: T1 sequence with S108T, C109H, D112E, N144T, H145F, Q148R

[25] = biological target: T25, PUM1 PUF domain R3-THE R4-TFR R7-NPG C935T + R936H + Q939E + N971T + H972F + Q975R + S1079N + N1080P + E1083G (UniProt Q14671)
T25 sequence: T1 sequence with S108T, C109H, D112E, N144T, H145F, Q148R, S252N, N253P, E256G

[26] = biological target: T26, PUM1 PUF domain R3-TQE C935T + R936Q + Q939E (UniProt Q14671)
T26 sequence: T1 sequence with S108T, C109Q, D112E

[27] = biological target: T27, PUM1 PUF domain R3-TRA C935T + Q939A (UniProt Q14671)
T27 sequence: T1 sequence with S108T, C109R, D112A

[28] = biological target: T28, PUM1 PUF domain R3-TRC C935T + Q939C (UniProt Q14671)
T28 sequence: T1 sequence with S108T, C109R, D112C

[29] = biological target: T29, PUM1 PUF domain R3-TRG C935T + Q939G (UniProt Q14671)
T29 sequence: T1 sequence with S108T, C109R, D112G

## GGCUAGAACUAGUGGAUCCCCCGGCGCCCGGCGGCUCGAGCCCGGGUAAGUGUAACUAGUCUGCAUGCCGCCGGGCGCCAUGCCUGCAGGUCGACUCUAGAAAACAUG
[1]
  binding signal (log2 enrichment (interaction score)): < -6.29
[2]
  binding signal (log2 enrichment (interaction score)): < -7.58
[3]
  binding signal (log2 enrichment (interaction score)): < -9.69
[4]
  binding signal (log2 enrichment (interaction score)): < -8.14
[5]
  binding signal (log2 enrichment (interaction score)): < -8.73
[6]
  binding signal (log2 enrichment (interaction score)): < -10.4
[7]
  binding signal (log2 enrichment (interaction score)): < -7.52
[8]
  binding signal (log2 enrichment (interaction score)): < -6.47
[9]
  binding signal (log2 enrichment (interaction score)): < -9.38
[10]
  binding signal (log2 enrichment (interaction score)): < -9.28
[11]
  binding signal (log2 enrichment (interaction score)): -4.16
[12]
  binding signal (log2 enrichment (interaction score)): -6.17
[13]
  binding signal (log2 enrichment (interaction score)): -5.78
[14]
  binding signal (log2 enrichment (interaction score)): < -8.87
[15]
  binding signal (log2 enrichment (interaction score)): < -6.74
[16]
  binding signal (log2 enrichment (interaction score)): -3.03
[17]
  binding signal (log2 enrichment (interaction score)): -5.69
[18]
  binding signal (log2 enrichment (interaction score)): < -7.51
[19]
  binding signal (log2 enrichment (interaction score)): -6.68
[20]
  binding signal (log2 enrichment (interaction score)): < -8.72
[21]
  binding signal (log2 enrichment (interaction score)): < -8.14
[22]
  binding signal (log2 enrichment (interaction score)): < -7.16
[23]
  binding signal (log2 enrichment (interaction score)): -3.96
[24]
  binding signal (log2 enrichment (interaction score)): -6.76
[25]
  binding signal (log2 enrichment (interaction score)): -2.06
[26]
  binding signal (log2 enrichment (interaction score)): < -9.55
[27]
  binding signal (log2 enrichment (interaction score)): < -9.5
[28]
  binding signal (log2 enrichment (interaction score)): -6.02
[29]
  binding signal (log2 enrichment (interaction score)): -5.34
